Reference: PMC8878468, “Image-Based Annotation of Chemogenomic Libraries for Phenotypic Screening” (Molecules, 2022)

Tested on: U2OS cells
Conditions: 24 h, itraconazole 10 µM, berzosertib 1 µM

| Compound | assay interference seen as Hoechst High Intensity Objects |
| --- | --- |
| CNCc1ccc(-c2cc(-c3nc(-c4ccc(S(=O)(=O)C(C)C)cc4)cnc3N)on2)cc1 [berzosertib] | fluorescence |
| CCC(C)n1ncn(-c2ccc(N3CCN(c4ccc(OCC5COC(Cn6cncn6)(c6ccc(Cl)cc6Cl)O5)cc4)CC3)cc2)c1=O (centres unmarked) [itraconazole] | Precipitation |
